Source: article PMC10930986
These are yes or no findings as the source states them, for the method shown. Binding seen in cells or lysates may run through a third protein. Some results given as binding are weak or reduced against the parent protein; the word gives no strength.

Target: voltage-dependent anion channel 1 (VDAC1) (human (endogenous in MCF-10A, MDA-MB-231, Hs578t)), P21796
Assay: co-IP; HKII and GSK3β co-immunoprecipitated with VDAC1; MCF-10A, MDA-MB-231 and Hs578t cells transfected for 48 h with pmOGT-HaloTaq or pHaloTaq (control)
Conditions: remark: other sources report otherwise

binding: binds
B1: hexokinase II, P52789 1-917 (enzyme)
chain: MIASHLLAYFFTELNHDQVQKVDQYLYHMRLSDETLLEISKRFRKEMEKGLGATTHPTAAVKMLPTFVRSTPDGTEHGEFLALDLGGTNFRVLWVKVTDNGLQKVEMENQIYAIPEDIMRGSGTQLFDHIAECLANFMDKLQIKDKKLPLGFTFSFPCHQTKLDESFLVSWTKGFKSSGVEGRDVVALIRKAIQRRGDFDIDIVAVVNDTVGTMMTCGYDDHNCEIGLIVGTGSNACYMEEMRHIDMVEGDEGRMCINMEWGAFGDDGSLNDIRTEFDQEIDMGSLNPGKQLFEKMISGMYMGELVRLILVKMAKEELLFGGKLSPELLNTGRFETKDISDIEGEKDGIRKAREVLMRLGLDPTQEDCVATHRICQIVSTRSASLCAATLAAVLQRIKENKGEERLRSTIGVDGSVYKKHPHFAKRLHKTVRRLVPGCDVRFLRSEDGSGKGAAMVTAVAYRLADQHRARQKTLEHLQLSHDQLLEVKRRMKVEMERGLSKETHASAPVKMLPTYVCATPDGTEKGDFLALDLGGTNFRVLLVRVRNGKWGGVEMHNKIYAIPQEVMHGTGDELFDHIVQCIADFLEYMGMKGVSLPLGFTFSFPCQQNSLDESILLKWTKGFKASGCEGEDVVTLLKEAIHRREEFDLDVVAVVNDTVGTMMTCGFEDPHCEVGLIVGTGSNACYMEEMRNVELVEGEEGRMCVNMEWGAFGDNGCLDDFRTEFDVAVDELSLNPGKQRFEKMISGMYLGEIVRNILIDFTKRGLLFRGRISERLKTRGIFETKFLSQIESDCLALLQVRAILQHLGLESTCDDSIIVKEVCTVVARRAAQLCGAGMAAVVDRIRENRGLDALKVTVGVDGTLYKLHPHFAKVMHETVKDLAPKCDVSFLQSEDGSGKGAALITAVACRIREAGQR
